Experimental data as given in patent publication US12637467B2, “Inhibitor of BTK and mutants thereof” (Newave Pharmaceutical Inc., priority 2019, dated 2026).
Structures were worked out from names or drawings and are uncertain.

Protein sequences, listed by entry. Tags and fused reporters are not part of them.
UniProt Q06187, whole entry: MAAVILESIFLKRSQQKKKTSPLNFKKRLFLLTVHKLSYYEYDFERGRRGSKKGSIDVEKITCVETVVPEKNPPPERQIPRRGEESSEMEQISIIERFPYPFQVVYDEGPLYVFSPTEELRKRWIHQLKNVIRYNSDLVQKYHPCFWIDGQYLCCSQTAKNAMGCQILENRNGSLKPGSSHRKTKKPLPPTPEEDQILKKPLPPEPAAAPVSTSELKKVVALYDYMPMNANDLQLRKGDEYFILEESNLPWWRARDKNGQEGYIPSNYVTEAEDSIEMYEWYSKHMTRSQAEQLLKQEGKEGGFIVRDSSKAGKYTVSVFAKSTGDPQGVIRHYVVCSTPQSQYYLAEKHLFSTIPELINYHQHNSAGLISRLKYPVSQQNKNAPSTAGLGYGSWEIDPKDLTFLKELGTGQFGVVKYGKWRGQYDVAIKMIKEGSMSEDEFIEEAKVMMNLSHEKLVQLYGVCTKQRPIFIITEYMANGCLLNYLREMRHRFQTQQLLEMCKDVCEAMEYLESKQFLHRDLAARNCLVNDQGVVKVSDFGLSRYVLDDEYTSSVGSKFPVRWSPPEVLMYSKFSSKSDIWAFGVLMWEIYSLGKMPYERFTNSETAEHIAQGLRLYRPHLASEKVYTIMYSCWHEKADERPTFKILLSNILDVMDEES

Target: WT BTK (Homo sapiens, UniProt Q06187)
Assay: In vitro dialysis assay (irreversibility assay), WT BTK
Format: biochemical
Settings: for Recovery after 24 h dialysis: 0.003 mM compound pre-incubated with 2 nM BTK for 2 hr, dialyzed 24 hr against buffer with 40 mM ATP, BTK activity vs non-dialyzed samples; for Conclusion (WT BTK): reversible or irreversible inhibition after 24 hr dialysis

| SMILES | Recovery after 24 h dialysis [%] | Conclusion (WT BTK) |
| --- | --- | --- |
| C=CC(=O)Nc1cc(Nc2nc(-c3ccnc(N4CCn5c(cc6c5CC(C)(C)C6)C4=O)c3CO)cn(C)c2=O)ccc1N1CCC(N2CCN(C)CC2)C[C@@H]1C (stereo partly shown) | ~1 | Irreversible/covalent inhibition |
| C=CC(=O)Nc1cc(Nc2nc(-c3ccnc(N4CCn5c(cc6c5CC(C)(C)C6)C4=O)c3CO)cn(C)c2=O)ccc1N1CCC(N2CCC(F)(F)CC2)C[C@@H]1C (stereo partly shown) | ~1 | Irreversible/covalent inhibition |
